Source: patent US20250235508A1, “MODIFIED THERAPEUTIC AGENTS AND COMPOSITIONS THEREOF” (THE SCRIPPS RESEARCH INSTITUTE, priority 2015, published 2025)
pEC50: −log10 of the molar value. For at least one compound, name, drawing or mass did not settle the structure.

Chains of the proteins cited; added tags and fusions are not shown. Residues count along the entry.
UniProt P47871, 26-477: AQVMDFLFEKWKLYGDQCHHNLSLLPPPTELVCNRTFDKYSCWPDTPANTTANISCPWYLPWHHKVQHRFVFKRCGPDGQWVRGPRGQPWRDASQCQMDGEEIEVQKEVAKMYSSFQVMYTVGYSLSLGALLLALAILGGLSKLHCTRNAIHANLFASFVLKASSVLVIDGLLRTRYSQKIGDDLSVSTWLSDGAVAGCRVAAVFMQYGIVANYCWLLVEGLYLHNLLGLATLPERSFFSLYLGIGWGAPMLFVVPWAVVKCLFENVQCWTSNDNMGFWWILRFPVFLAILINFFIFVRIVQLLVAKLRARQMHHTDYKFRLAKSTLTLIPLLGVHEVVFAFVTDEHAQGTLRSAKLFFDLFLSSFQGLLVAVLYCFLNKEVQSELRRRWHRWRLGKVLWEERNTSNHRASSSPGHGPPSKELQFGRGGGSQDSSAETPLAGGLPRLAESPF
UniProt P43220, 24-463: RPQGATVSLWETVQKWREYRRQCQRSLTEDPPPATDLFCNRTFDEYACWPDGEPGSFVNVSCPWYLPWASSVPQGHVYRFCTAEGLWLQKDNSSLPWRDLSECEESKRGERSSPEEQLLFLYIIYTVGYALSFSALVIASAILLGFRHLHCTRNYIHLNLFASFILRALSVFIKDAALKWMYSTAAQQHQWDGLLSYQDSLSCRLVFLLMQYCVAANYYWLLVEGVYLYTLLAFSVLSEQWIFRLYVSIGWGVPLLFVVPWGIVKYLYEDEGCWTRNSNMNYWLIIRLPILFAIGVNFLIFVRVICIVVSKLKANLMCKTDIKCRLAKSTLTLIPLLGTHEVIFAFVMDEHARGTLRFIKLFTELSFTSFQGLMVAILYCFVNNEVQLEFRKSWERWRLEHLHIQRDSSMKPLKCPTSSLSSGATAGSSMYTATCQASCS

Experiments:
[1] = biological target: T1, human glucagon receptor (GCGR) (Homo sapiens, UniProt P47871); assay: GCGR receptor-mediated CRE Luc reporter assay (receptor-mediated cAMP synthesis); format: cell-based; conditions: HEK293-GCGR-CRE cells, luciferase reporter
T1 construct: expressed in transfected cells; host or cells: HEK293 (CRE-HEK293)
Experimental: CREB responsive luciferase stable HEK 293 cell line overexpressing human glucagon receptor (GCGR), glucagon-like peptide 1 receptor (GLP-1R), glucose-dependent insulinotropic polypeptide receptor (GIPR), glucagon-like peptide 2 receptor (GLP-2R) was generated as follows. HEK293 cells were infected with lent virus encoding firefly luciferase gene under the control of CRE promoter, as described in the manual (Qiagen, Netherlands) and then were selected using 1 μg/mL puromycin (Life technologies, Carlsbad) for 1 week. The survived cells were named as CRE-HEK293, expanded and then transfected with a G418 selective mammalian expression plasmid encoding human GCGR, GLP-1R, GIPR or GLP-2R. In brief, GCGR, GLP-1R, GIPR, or GLP-2R plasmid was transfected into CRE-HEK293 cells using Lipofectamine 2000 and selected with 400 μg/mL geneticin (Life technologies, Carlsbad, CA). Single colony stable cell lines overexpressing both CRE-luciferase and GCGR, GLP-1R, GIPR, or GLP-2R were then established for in vitro activity assays. […] On the next day, 10 μl of Bright-Glo reagent (Promega, Madison, WI) were added into each well and firefly luminescence was determined using an Envision multilabel plate reader (PerkinElmer, Waltham, MA). EC50 of each peptide was calculated using GraphPad Prism 6 software (GraphPad, San Diego, CA). […]

[2] = biological target: T2, human glucagon-like peptide 1 receptor (GLP-1R) (Homo sapiens, UniProt P43220); assay: GLP-1R receptor-mediated CRE Luc reporter assay (receptor-mediated cAMP synthesis); format: cell-based; conditions: HEK293-GLP-1R-CRE cells, luciferase reporter
T2 construct: expressed in transfected cells; host or cells: HEK293 (CRE-HEK293)
Experimental: HEK293 cells were infected with lent virus encoding firefly luciferase gene under the control of CRE promoter, as described in the manual (Qiagen, Netherlands) and then were selected using 1 μg/mL puromycin (Life technologies, Carlsbad) for 1 week. The survived cells were named as CRE-HEK293, expanded and then transfected with a G418 selective mammalian expression plasmid encoding human GCGR, GLP-1R, GIPR or GLP-2R. […] Single colony stable cell lines overexpressing both CRE-luciferase and GCGR, GLP-1R, GIPR, or GLP-2R were then established for in vitro activity assays. These four stable cell lines were named as HEK293-GCGR-CRE, HEK293-GLP-1R-CRE, HEK293-GIPR-CRE, and HEK293-GLP-2R-CRE. […] Cells were treated with different peptides in a dose dependent manner.

## CC[C@H](C)[C@@H]1NC(=O)[C@H](Cc2ccccc2)NC(=O)[C@H](CCC(=O)O)NC(=O)[C@H](CCCCN)NC(=O)[C@H](C)NC(=O)[C@H](C)NC(=O)[C@@H](NC(=O)[C@H](CCC(=O)O)NC(=O)[C@H](CC(=O)O)NC(=O)[C@H](CC(C)C)NC(=O)[C@H](Cc2ccc(O)cc2)NC(=O)[C@H](CCCCN)NC(=O)[C@H](CO)NC(=O)[C@H](Cc2ccc(O)cc2)NC(=O)[C@H](CC(=O)O)NC(=O)[C@H](CO)NC(=O)[C@@H](NC(=O)[C@H](Cc2ccccc2)NC(=O)[C@@H](NC(=O)CNC(=O)[C@H](CCC(N)=O)NC(=O)[C@@H](CO)NC(=O)[C@@H](N)Cc2c[nH]cn2)[C@@H](C)O)[C@@H](C)O)CCCCNC(=O)CN(C(=O)CCNC(=O)CCOCCOCCOCCNC(=O)CCCCCCCCCCCCCCCCC(=O)O)CC(=O)NCCCC[C@@H](C(=O)N[C@@H](Cc2c[nH]c3ccccc23)C(=O)N[C@@H](CC(C)C)C(=O)N[C@@H](CC(C)C)C(=O)N[C@@H](CC(N)=O)C(=O)NCC(=O)NCC(=O)N2CCC[C@H]2C(=O)N[C@@H](CO)C(=O)N[C@@H](CO)C(=O)NCC(=O)N[C@@H](C)C(=O)N2CCC[C@H]2C(=O)N2CCC[C@H]2C(=O)N2CCC[C@H]2C(=O)N[C@@H](CO)C(N)=O)NC1=O [mTA6]
[1]
  pEC50: 9.21
[2]
  pEC50: 10.52
